The values that follow come from patent US7189506B1, “DNA binding compound-mediated molecular switch system” (Genelabs Technologies, Inc.).

Chains of the proteins cited; added tags and fusions are not shown. A line that says so, or that is headed by a name, gives the form on record, which may keep a tag or linker.
Thioredoxin-p50 NF-kB fusion (p50C) (Homo sapiens), one chain, as listed by the source: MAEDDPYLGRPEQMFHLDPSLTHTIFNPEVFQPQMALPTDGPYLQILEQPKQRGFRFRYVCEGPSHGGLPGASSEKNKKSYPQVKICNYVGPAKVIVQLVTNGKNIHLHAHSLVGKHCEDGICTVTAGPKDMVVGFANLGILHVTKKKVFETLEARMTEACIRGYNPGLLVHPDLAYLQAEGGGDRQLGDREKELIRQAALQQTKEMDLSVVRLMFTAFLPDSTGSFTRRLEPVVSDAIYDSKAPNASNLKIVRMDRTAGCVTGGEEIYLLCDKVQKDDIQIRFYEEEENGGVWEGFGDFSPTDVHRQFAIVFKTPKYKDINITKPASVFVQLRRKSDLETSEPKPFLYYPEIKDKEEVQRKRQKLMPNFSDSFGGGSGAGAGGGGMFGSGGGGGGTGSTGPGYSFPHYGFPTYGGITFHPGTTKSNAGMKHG

For at least one entry, the source does not settle the construct or the ends of the probe. For part of these data: Where cells or extracts were used, other partners may take part.

Data set [1] deals with HNF3 (hepatocyte nuclear factor 3). The data set is described as follows: EMSA. The following applies: protein source not stated, protein in an extract. Background: A gel shift assay detects complexes by their altered migration in electrophoresis.
Data set [2] relates to Thioredoxin-p50 NF-kB fusion (p50C) (Homo sapiens). The data set is described as follows: EMSA. As to conditions: purified recombinant protein, protein details: Thioredoxin fusion (Genelabs Technologies), label: 32P.

As for “ACCTTGAGGCATACTTCAAAGACTGTTGATTTAGCGAATAAGAGGAGTTGG (double strand) [HNF3Rds1]”, the binding result in data set [1] (displaced by GL046732, displacement EC50 300-800 nM) is reported as “binds”. “ACCTTGAGGCATACTTCAAAGACTGTTTATTTAAGGACTGGGAGGAGTTGG (double strand) [HNF3Rds3]”: in data set [1] (slightly displaced by GL046732), the binding result is “binds”. As for “ACCTTGAGGCATACTTCAAAGACTGTTTATTTTAATAACGGGAGGAGTTGG (double strand) [HNF3Rds2]”, in data set [1], the binding result is listed as “binds”. As to “CGACCGTGCTCGAGAAATTGGGATTTTCCAAAAACGATCGGACTGGACTC (double strand) [JF103]”, in data set [2] (displaced by 21x), the binding result is listed as “binds”. Regarding “CGACCGTGCTCGAGTTAACGGGACTTTCCAAAAACGATCGGACTGGACTC (double strand) [JF101]”, in data set [2] (displaced by 21x, less efficiently than IL-6 type site), the binding result is “binds”. In the case of “CGACCGTGCTCGAGTTAACGGGATTTTCCAAAAACGATCGGACTGGACTC (double strand) [JF102]”, the binding result in data set [2] (displaced by 21x more efficiently than by distamycin) is listed as “binds”.
